Percent effect of library compounds

Chains of the proteins cited; added tags and fusions are not shown. Residues count along the entry.
UniProt Q4DA54, 1-478: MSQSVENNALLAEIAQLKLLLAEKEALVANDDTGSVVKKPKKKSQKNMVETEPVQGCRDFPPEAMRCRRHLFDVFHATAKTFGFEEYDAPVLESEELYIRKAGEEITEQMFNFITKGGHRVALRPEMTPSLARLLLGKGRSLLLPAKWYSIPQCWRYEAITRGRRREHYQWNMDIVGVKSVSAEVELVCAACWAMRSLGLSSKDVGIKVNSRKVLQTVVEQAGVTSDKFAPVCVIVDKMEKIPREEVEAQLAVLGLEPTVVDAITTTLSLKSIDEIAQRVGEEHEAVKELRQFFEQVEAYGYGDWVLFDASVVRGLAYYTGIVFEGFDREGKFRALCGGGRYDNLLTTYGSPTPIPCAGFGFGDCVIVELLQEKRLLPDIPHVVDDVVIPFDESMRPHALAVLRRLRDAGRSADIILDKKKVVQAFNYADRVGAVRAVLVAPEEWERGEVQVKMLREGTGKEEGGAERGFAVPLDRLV
UniProt P9WNZ1, whole entry: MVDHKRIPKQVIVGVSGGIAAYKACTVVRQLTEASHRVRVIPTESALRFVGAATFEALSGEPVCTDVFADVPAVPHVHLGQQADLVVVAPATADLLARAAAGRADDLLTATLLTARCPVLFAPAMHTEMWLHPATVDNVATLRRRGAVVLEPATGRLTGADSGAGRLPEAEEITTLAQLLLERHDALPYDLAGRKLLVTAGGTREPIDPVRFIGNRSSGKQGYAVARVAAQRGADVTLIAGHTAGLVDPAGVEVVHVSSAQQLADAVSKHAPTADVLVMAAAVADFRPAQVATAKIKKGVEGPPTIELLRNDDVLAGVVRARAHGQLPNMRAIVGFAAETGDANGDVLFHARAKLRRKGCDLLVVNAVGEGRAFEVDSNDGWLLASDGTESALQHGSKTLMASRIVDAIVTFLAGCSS

The filed quantity is “Percent Effect” (%). The controls that fix the scale are not given in the record; negative values are as filed. This is an unselected part of the compounds tested. Two or more numbers in one place are separate tests of the same structure; such repeats can differ widely.

Toxoplasma: 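Assay of Toxoplasma gondii numbers, read through their beta-galactosidase reporter with a colour substrate. Tested at 10 µM. The record gives no direction; the compounds picked for IC50 retests had high values, so higher reads as fewer parasites. Size under these conditions: about 67,000 compounds, about 260 of them at 50% or above in at least one test.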
TcHisRS: 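Histidine-tRNA ligase, Trypanosoma cruzi CL Brener (UniProt Q4DA54). Enzyme assay of histidyl-tRNA synthetase; the read-out is not stated. Compounds at 30 µM. The record gives no direction; compounds that gave an IC50 in retests scored well above the rest, so higher reads as stronger inhibition. Of about 69,000 compounds tested this way, about 31 (0.045%) reached 50% or more in at least one test.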
CoaBC: 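Enzyme assay of CoaBC with a phosphate dye (Biomol Green) read at 650 nm. Target: Coenzyme A biosynthesis protein CoaBC, Mycobacterium tuberculosis (UniProt P9WNZ1). Tested at 30 µM. Higher reads as stronger inhibition, judged from the few compounds that gave an IC50. Most strong results did not repeat in a second test. Of about 67,000 compounds tested this way, about 40 (0.06%) reached 50% or more in at least one test.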
Leishmania in macrophages: 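Cell assay of Leishmania donovani living inside macrophages; the read-out is not stated. Compounds at 30 µM. The record gives no direction; compounds that gave an IC50 in retests scored well above the rest, so higher reads as stronger inhibition. Size under these conditions: about 69,000 compounds, about 1,000 of them at 50% or above in at least one test.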

* CN1CC2(CCCN(c3nc(N)nc4c3CCCC4)C2)OC1=O (centres unmarked) | Toxoplasma: -8.841%; TcHisRS: 4.972%; CoaBC: 6.311%; Leishmania in macrophages: 13.82%
* Cn1cc(CN(CC2(O)CNCCOC2)C2CCCCC2)cn1 (centres unmarked) | Toxoplasma: 10.5%; TcHisRS: 11%; CoaBC: -2.149%; Leishmania in macrophages: -3.76%
* CN(C)C(=O)COC[C@]12COC[C@H]1CN(Cc1ccccc1)C2 | TcHisRS: 4.673%; CoaBC: -10.86%
* O=C(CO)N1CCN(C(=O)c2coc3ccccc23)CC1 | Toxoplasma: 1.598%; TcHisRS: 2.632%; Leishmania in macrophages: 5.398%
* Cc1cc(C)c(CNC(=O)N2CCCC2c2ccccc2)c(=O)[nH]1 (centres unmarked) | Toxoplasma: -3.656%; TcHisRS: 7.143%; CoaBC: 10.97%; Leishmania in macrophages: 20.47%
* O=C(Cc1cccs1)NCc1ccnc(C2CCCOC2)n1 (centres unmarked) | Toxoplasma: -0.8631%; TcHisRS: 1.13%; CoaBC: -8.959%; Leishmania in macrophages: 4.584%
* Cc1ccc(NCCCNc2nccc(-c3cn(C)nc3C)n2)nc1 | Toxoplasma: -9.22%; TcHisRS: 3.061%; CoaBC: 1.19%; Leishmania in macrophages: -12.94%
* COc1cc(N2CCC3(CCCN(C(=O)c4cnccn4)C3)C2)ncn1 (centres unmarked) | TcHisRS: 12%; CoaBC: 1.486%
* O=C1CCCC2=C1C(c1ccc(F)cc1F)Nc1nonc1N2 (centres unmarked) | Toxoplasma: -0.04049%; TcHisRS: 4.167%; CoaBC: 4.833%; Leishmania in macrophages: 17.66%
* CNCC(=O)N1CCCC1c1cncc(Oc2ccc(F)cc2)n1 (centres unmarked) | TcHisRS: 3.333%; CoaBC: 4.843%
* Cc1ccc(CC(=O)N2Cc3nccn3CC(CN(C)C)C2)cc1.O=C(O)C(F)(F)F (centres unmarked) | Toxoplasma: 0.06711%; Leishmania in macrophages: 44.04%
* Cc1[nH]c2c(C)ccc(C)c2c1CC(=O)NC1CCCNC1=O (centres unmarked) | Toxoplasma: -31.31%; TcHisRS: 1.786%; CoaBC: 3.396%; Leishmania in macrophages: 19.64%
* Cn1ccnc1C1CCCN(C(=O)c2ccc3nccnc3c2)C1 (centres unmarked) | Toxoplasma: 15.88%; TcHisRS: 6.061%; CoaBC: 2.02%; Leishmania in macrophages: 0.7018%
* CCc1cc(N[C@H]2CCC[C@H]2O)n2nccc2n1 | Toxoplasma: 0.7992%; TcHisRS: 10.2%; CoaBC: 13.61%; Leishmania in macrophages: -0.8399%
* O=C(c1ccco1)N1CCO[C@@H]2CN(c3ccccn3)CC[C@@H]2C1 | TcHisRS: 2.151%; CoaBC: 4.44%
* Cc1cc(C(=O)N2CCC(CCn3cccn3)CC2)c(C)o1 | Toxoplasma: 11.98%; TcHisRS: 3.279%; CoaBC: 9.046%; Leishmania in macrophages: -195.6%
* CC(=O)N1CC2(CCCN2Cc2ccc(Cl)cc2)Cc2ccccc21 (centres unmarked) | Toxoplasma: 22.35%; TcHisRS: -2.959%; CoaBC: -4.474%; Leishmania in macrophages: -3.6%
* CCc1ncncc1C(=O)N1CCCN(Cc2ccc(C)cc2)CC1 | Toxoplasma: -3.327%; TcHisRS: -0.7576%; CoaBC: -2.17%; Leishmania in macrophages: 16.67%
* Cc1c(C2N3C[C@]4(C(C)C)CN2C[C@](C(C)C)(C3)C4=O)[nH]c(=O)[nH]c1=O (some centres unmarked) | Toxoplasma: 5.289%; TcHisRS: -6%; CoaBC: -0.2421%; Leishmania in macrophages: 22.91%
* Cn1ccnc1CCNC(=O)NCCC1CCCCO1 (centres unmarked) | Toxoplasma: 3.311%; TcHisRS: 7.895%; Leishmania in macrophages: 11.89%
* [H][C@@]12C[C@@H](C(=O)NC(C)C)CN(Cc3ccc4ccccc4n3)[C@]1([H])CCO2 | Toxoplasma: -28.48%; Leishmania in macrophages: 15.81%
* Cn1nc(CN2CCCCC2)c2c1CN(C(=O)c1cccc(C#N)c1)C2 | TcHisRS: -2.4%; CoaBC: 4.459%
* O=C(CCn1cccn1)N1CCSCC1 | Toxoplasma: 4.874%; TcHisRS: 6.706%; CoaBC: 9.838%; Leishmania in macrophages: -0.6611%
* CN(Cc1nnc2n1CCC2)C(=O)NCCc1ccc2c(c1)OCO2 | Toxoplasma: 1.321%; TcHisRS: 4.511%; CoaBC: 3.915%; Leishmania in macrophages: 16.76%
* COCC(=O)N1CCCC1c1nc(O)cc(C(C)C)n1 (centres unmarked) | Toxoplasma: -3.032%; TcHisRS: 5.97%; CoaBC: 8.516%; Leishmania in macrophages: 9.453% and 14.49%
* CN1C[C@H]2CNC[C@@]2(C(=O)NC2CCN(c3ncccc3C#N)CC2)C1 | TcHisRS: 4%; CoaBC: -38.74%
* Cc1nn(C)c(C)c1CCC(=O)Nc1nnc(C2CC2)s1 | Toxoplasma: 5.229%; TcHisRS: -1.587%; CoaBC: 4.073%; Leishmania in macrophages: 0.524%
* COc1ccc(CN2CCCC3(CCN(c4ccsc4)C3=O)C2)cc1 (centres unmarked) | TcHisRS: 8.197%; CoaBC: 10.88%
* Cn1ccnc1C1CCN(CCN2CCOCC2)CC1 | Toxoplasma: -9.067%; TcHisRS: 3.704%; CoaBC: -1.474%; Leishmania in macrophages: 32.25%
* CO[C@@H]1CCN(Cc2cccs2)[C@H]1Cc1ccncc1 | Toxoplasma: -11.12%; TcHisRS: 3.941%; CoaBC: 3.046%; Leishmania in macrophages: 3.243%
* c1ccc(OCCCn2ccnc2-c2cn(C3CCNCC3)nn2)cc1 | Toxoplasma: 3.141%; TcHisRS: 16.08%; CoaBC: -19.74%; Leishmania in macrophages: 27.07%
* Cc1cnn(CC2CCCN2c2ncnc3ccsc23)c1 (centres unmarked) | Toxoplasma: 12.07%; TcHisRS: 6.122%; CoaBC: 10.59%; Leishmania in macrophages: 46.26%
* COCc1ccccc1C(=O)N1CCC(CNC(=O)OC(C)(C)C)C1 (centres unmarked) | Toxoplasma: 9.27%; TcHisRS: -1.064%; CoaBC: 14.53%; Leishmania in macrophages: 11.71%

The last 2 entries again:

compound,Toxoplasma,TcHisRS,CoaBC,Leishmania in macrophages
Cc1cnn(CC2CCCN2c2ncnc3ccsc23)c1 (centres unmarked),12.07,6.122,10.59,46.26
COCc1ccccc1C(=O)N1CCC(CNC(=O)OC(C)(C)C)C1 (centres unmarked),9.27,-1.064,14.53,11.71

Data taken from ChEMBL document CHEMBL3988442, “University of Dundee, Small-Polar-MMV Screening Library” (2021).